For assay [1], the target named is Myc-PUM1-WT (human) (UniProt Q14671). As to the kind of experiment: co-IP.
Assay [2] concerns the target Pumilio1 (Pum1), mouse (mouse (endogenous in brain)) (UniProt Q80U78). As to the kind of experiment: co-IP.
Assay [3] shares this target. Briefly: co-IP. The source holds these as a separate data set.
Assay [4] shares this target. Briefly: co-IP. This is another data set of the same source.
The target in assay [5] is GST-PUM2, recombinant (human) (UniProt Q8TB72). Briefly: pull-down.
For assay [6], the target named is Ago2, mouse (mouse (endogenous in brain)) (UniProt Q8CJG0). Briefly: co-IP.
Assay [7] deals with Cnot1, mouse (mouse (endogenous in brain)) (UniProt Q6ZQ08). Briefly: co-IP.
Assay [8] addresses Pum2, mouse (mouse (endogenous in brain)) (UniProt Q80U58). As to the kind of experiment: co-IP.
For assay [9], the target named is Ago2, mouse (mouse (endogenous in brain)) (UniProt Q8CJG0). As to the kind of experiment: co-IP. This is another data set of the same source.
Assay [10] deals with Anapc1, mouse (mouse (endogenous in brain)) (UniProt P53995). As to the kind of experiment: co-IP.
Assay [11] concerns the target Cad, mouse (mouse (endogenous in brain)) (UniProt B2RQC6). Briefly: co-IP.
Assay [12] has as its target Cnot1, mouse (mouse (endogenous in brain)) (UniProt Q6ZQ08). Briefly: co-IP. This is another data set of the same source.
In assay [13] the target is Fzr1, mouse (mouse (endogenous in brain)) (UniProt Q9R1K5). Briefly: co-IP.
The target of assay [14] is Pum2, mouse (mouse (endogenous in brain)) (UniProt Q80U58). Briefly: co-IP. This is another data set of the same source.
Assay [15] concerns the target Rptor, mouse (mouse (endogenous in brain)) (UniProt Q8K4Q0). Briefly: co-IP.
The target in another assay is Myc-PUM1-R1147W (human) (UniProt Q14671). Briefly: co-IP.
Assay [16] deals with Myc-PUM1-T1035S (human) (UniProt Q14671). Briefly: co-IP.
The target in assay [17] is Myc-PUM1-WT (human) (UniProt Q14671). Briefly: co-IP. This is another data set of the same source.
In assay [18] the target is Myc-PUM1-T1035S (human) (UniProt Q14671). Briefly: co-IP. This is another data set of the same source.

Protein sequences, listed by entry. Tags and fused reporters are not part of them. Lines headed by an entry give the natural chain unless they say otherwise; changes in a name come on top. Chains listed by the source or under a name are the forms on record and can include a tag or linker.
GST-PUM1-WT (Q14671-3, form named): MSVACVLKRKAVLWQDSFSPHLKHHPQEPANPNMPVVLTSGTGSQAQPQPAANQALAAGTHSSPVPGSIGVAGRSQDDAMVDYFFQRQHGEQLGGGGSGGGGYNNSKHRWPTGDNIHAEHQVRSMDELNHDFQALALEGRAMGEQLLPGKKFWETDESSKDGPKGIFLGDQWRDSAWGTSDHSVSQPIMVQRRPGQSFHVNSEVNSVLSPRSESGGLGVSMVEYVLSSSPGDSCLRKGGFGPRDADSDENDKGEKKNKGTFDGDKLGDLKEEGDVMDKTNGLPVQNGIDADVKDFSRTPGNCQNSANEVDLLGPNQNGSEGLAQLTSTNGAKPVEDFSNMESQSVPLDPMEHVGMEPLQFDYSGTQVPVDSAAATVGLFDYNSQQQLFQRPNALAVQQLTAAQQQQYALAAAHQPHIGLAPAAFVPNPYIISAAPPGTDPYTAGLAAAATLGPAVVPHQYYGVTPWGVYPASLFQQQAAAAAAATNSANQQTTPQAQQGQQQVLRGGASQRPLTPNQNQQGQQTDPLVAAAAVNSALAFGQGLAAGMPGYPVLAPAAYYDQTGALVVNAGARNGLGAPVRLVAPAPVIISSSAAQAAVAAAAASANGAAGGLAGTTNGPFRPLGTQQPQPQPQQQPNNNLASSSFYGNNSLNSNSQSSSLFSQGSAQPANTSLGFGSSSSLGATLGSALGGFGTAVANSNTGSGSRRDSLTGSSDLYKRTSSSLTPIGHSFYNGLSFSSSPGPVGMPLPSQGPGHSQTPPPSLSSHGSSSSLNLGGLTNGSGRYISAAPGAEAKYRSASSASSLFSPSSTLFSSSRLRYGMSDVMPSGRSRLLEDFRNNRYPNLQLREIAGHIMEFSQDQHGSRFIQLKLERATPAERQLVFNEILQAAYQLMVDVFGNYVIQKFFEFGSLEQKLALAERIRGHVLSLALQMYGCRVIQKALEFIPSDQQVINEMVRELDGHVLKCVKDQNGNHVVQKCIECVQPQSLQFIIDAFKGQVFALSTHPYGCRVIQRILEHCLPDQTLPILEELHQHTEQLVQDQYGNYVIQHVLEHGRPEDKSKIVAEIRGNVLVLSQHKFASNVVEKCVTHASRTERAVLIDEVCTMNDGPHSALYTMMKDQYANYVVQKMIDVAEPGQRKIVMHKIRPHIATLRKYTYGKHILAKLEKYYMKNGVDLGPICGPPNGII
Myc-PUM1-R1147W (Q14671-3, form named): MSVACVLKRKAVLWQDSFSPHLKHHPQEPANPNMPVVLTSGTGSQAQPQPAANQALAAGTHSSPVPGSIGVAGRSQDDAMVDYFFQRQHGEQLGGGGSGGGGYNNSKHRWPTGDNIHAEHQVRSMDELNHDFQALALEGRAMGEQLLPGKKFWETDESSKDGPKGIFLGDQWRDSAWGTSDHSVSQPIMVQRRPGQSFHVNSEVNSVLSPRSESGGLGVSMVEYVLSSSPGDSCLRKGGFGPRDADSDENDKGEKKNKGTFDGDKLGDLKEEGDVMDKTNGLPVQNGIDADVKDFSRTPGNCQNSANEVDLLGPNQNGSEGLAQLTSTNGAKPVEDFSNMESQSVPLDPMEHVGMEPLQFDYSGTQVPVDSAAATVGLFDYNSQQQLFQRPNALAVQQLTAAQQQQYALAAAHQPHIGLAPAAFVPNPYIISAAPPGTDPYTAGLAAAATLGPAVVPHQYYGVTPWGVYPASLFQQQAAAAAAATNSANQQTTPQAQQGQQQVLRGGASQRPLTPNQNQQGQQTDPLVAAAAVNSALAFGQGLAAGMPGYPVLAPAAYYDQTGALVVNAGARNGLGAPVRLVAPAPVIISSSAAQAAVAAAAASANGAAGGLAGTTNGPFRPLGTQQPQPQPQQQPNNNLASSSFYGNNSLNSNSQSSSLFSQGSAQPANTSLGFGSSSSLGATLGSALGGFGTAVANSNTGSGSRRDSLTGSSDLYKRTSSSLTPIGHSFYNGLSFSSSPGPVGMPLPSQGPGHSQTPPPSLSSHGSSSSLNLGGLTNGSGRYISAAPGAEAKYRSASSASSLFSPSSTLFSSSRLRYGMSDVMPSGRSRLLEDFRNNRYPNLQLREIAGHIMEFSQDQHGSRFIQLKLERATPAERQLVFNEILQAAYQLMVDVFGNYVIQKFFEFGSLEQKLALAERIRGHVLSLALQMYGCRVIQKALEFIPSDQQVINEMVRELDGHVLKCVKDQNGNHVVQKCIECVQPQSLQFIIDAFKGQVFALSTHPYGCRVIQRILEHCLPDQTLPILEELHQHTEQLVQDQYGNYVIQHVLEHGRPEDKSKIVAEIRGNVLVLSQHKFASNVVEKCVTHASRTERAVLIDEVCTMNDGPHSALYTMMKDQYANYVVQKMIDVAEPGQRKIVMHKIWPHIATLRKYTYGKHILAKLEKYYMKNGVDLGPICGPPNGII
UniProt Q80U78: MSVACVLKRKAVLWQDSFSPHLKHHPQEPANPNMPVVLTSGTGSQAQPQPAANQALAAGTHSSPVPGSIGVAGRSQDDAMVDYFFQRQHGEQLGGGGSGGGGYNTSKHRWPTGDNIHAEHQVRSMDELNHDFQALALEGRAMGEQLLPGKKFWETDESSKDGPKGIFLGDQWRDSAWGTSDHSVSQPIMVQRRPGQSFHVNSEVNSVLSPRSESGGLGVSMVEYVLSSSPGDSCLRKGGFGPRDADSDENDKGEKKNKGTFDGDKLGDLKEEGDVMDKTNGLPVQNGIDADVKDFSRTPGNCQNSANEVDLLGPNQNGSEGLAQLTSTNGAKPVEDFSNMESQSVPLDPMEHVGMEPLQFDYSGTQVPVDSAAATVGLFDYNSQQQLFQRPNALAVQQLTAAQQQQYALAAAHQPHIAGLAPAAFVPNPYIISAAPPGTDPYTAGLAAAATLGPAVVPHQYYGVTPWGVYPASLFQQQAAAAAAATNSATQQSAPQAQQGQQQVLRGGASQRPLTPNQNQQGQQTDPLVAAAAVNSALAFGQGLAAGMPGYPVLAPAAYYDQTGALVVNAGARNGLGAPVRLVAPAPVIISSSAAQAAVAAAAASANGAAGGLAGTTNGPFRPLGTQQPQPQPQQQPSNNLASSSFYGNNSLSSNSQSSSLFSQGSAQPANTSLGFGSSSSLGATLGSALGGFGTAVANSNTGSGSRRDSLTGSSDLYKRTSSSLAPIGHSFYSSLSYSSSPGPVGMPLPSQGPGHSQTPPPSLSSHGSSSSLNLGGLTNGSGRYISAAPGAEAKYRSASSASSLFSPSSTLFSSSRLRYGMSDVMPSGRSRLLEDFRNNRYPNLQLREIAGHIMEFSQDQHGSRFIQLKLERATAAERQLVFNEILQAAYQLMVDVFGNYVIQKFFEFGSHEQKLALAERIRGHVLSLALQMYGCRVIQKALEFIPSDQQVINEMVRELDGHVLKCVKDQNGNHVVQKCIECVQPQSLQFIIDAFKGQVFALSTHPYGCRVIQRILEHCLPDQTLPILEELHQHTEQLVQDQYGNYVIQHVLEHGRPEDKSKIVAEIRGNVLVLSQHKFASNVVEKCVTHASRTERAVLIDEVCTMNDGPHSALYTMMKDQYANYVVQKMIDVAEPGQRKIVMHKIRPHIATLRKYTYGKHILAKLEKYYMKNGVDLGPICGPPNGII
UniProt Q6ZQ08: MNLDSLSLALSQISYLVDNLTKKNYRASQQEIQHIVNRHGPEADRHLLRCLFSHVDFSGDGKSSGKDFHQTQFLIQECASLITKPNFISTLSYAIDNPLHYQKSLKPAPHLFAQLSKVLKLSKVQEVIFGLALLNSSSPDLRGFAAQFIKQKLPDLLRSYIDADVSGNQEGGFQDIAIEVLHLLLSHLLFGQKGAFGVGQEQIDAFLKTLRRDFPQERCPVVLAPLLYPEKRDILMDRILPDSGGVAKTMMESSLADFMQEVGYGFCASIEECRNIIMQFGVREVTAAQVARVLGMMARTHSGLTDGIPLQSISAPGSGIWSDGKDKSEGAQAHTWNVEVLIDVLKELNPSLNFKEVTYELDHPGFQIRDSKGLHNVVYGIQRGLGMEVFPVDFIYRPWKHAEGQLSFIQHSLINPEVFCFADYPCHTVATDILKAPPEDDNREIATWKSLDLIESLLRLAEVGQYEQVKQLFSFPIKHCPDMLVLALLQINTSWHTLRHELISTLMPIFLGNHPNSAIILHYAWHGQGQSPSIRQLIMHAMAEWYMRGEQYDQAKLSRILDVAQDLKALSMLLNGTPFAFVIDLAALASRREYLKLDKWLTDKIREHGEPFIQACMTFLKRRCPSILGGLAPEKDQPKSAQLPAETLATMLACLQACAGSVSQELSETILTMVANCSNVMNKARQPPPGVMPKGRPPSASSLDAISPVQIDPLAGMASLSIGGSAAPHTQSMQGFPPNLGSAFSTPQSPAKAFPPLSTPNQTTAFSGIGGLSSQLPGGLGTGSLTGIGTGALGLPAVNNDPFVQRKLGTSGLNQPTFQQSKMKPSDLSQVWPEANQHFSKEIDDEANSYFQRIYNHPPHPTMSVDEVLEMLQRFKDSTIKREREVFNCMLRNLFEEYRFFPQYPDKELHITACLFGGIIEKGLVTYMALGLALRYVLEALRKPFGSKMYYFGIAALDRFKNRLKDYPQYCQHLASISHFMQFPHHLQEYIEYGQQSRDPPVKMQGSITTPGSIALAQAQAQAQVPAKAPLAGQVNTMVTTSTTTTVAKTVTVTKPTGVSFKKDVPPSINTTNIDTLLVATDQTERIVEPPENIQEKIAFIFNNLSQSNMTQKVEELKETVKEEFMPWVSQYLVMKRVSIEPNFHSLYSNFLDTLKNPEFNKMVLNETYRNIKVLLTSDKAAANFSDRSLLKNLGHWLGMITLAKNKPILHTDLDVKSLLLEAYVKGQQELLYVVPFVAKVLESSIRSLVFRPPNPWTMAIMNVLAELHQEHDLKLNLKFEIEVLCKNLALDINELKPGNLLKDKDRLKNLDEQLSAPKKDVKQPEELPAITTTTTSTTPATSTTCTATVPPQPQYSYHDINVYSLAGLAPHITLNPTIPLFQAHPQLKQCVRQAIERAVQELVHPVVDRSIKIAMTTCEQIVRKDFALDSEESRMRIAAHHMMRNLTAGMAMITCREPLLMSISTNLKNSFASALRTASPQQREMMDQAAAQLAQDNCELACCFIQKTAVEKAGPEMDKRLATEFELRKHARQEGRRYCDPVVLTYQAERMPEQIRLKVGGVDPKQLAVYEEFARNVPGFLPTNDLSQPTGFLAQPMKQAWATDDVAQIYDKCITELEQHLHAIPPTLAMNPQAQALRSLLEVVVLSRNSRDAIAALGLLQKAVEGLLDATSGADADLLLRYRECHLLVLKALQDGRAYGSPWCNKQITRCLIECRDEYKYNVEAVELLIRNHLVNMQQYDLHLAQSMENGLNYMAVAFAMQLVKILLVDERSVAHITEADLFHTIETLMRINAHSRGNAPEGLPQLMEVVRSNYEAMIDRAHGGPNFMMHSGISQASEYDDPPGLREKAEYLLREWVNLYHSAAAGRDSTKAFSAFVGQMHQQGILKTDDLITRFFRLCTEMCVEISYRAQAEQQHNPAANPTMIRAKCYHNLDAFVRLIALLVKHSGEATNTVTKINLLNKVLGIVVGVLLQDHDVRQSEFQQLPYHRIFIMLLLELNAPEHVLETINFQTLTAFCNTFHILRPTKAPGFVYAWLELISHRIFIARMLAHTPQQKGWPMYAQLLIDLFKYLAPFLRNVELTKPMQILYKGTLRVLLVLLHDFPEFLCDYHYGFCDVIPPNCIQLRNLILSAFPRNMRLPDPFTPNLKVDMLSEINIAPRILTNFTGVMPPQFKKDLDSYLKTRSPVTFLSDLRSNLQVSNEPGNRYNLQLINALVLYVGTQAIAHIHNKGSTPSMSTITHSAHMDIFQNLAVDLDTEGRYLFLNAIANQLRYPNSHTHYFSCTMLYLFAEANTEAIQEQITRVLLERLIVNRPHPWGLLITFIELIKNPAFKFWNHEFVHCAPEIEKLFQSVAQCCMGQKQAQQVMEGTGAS
UniProt Q9R1K5: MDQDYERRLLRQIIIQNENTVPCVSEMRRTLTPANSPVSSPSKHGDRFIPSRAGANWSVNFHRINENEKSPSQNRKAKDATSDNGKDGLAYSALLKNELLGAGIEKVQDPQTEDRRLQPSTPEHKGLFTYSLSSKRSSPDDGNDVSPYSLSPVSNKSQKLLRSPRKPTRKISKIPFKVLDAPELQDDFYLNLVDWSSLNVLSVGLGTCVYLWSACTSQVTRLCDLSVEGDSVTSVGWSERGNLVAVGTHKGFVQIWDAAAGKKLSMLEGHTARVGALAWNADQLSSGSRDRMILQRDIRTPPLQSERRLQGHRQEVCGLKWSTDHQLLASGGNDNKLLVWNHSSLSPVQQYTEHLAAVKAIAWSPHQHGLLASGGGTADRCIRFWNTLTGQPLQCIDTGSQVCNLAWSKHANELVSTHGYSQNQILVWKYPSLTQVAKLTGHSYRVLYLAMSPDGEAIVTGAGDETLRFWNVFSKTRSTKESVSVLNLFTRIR

This note sets out measurements from doi:10.1101/2021.03.11.435015.

Like-named read-outs stand apart in the source and are kept apart here. These are yes or no findings as the source states them, for the method shown. For some assays here: In cells and extracts the contact can be indirect. Some results given as binding are weak or reduced against the parent protein; the word gives no strength.

As to GST-AGO2 (from UniProt Q9UKV8 1-859), in the assay with Myc-PUM1-WT (human) [1], the binding entry is listed as “binds”.

Regarding GST-CNOT1 (from UniProt A5YKK6 1-2376), in the assay with Myc-PUM1-WT (human) [1], the binding entry is on record as “binds”.

With “Cnot1, mouse (from UniProt Q6ZQ08 1-2375)”, the binding entry in assay [2] and in assay [3] was “binds” in each case.

Ago3, mouse (from UniProt Q8CJF9 1-860): the binding entry in assay [4] and in assay [3] was “no binding” in each case.

Regarding “Rptor, mouse (from UniProt Q8K4Q0 1-1335)”, the binding entry in assay [3] was “binds”.

With Cad, mouse (from UniProt B2RQC6 1-2225), in assay [3], the binding entry is given as “binds”.

On to “MBP-SNAP-PUM1-His6, recombinant (from UniProt Q14671-3 1-1188)”, for which, in [5], the binding result is recorded as “binds”.

With Fzr1, mouse (from UniProt Q9R1K5 1-493), the binding result in [3] is “binds”.

Ago1, mouse (from UniProt Q8CJG1 1-857): the binding entry in [4] and in assay [3] was “no binding” each time.

Ago2, mouse (from UniProt Q8CJG0 1-860): the binding entry in [2] and in assay [3] was “binds” throughout.

Take “Pum2, mouse (from UniProt Q80U58 1-1066)”: the binding result in assay [2] and in assay [3] was “binds” in each case.

On to “Anapc1, mouse (from UniProt P53995 1-1944)”, for which the binding result in assay [3] is “binds”.

For the substance “Pumilio1 (Pum1), mouse (from UniProt Q80U78 1-1189)”, the binding result in assay [6], in [7], in [8], in assay [9], in assay [10] and in assay [11] was “binds” throughout. In addition, the binding entry in assay [12], in assay [13], in [14] and in [15] was “binds” in each case.

For “GST-PUM1-WT (from UniProt Q14671-3 1-1188)”, the binding result with Myc-PUM1-R1147W (human), with Myc-PUM1-T1035S (human) [16], with Myc-PUM1-WT (human) [17], in the assay with Myc-PUM1-T1035S (human) [18] and with Myc-PUM1-WT (human) [1] was “binds” throughout.
